Data: PMC8487067
No constants are given. Whether binding was seen depends on the method and setting. In cells and extracts the contact can be indirect. Some binding calls cover weakened binding; strength is not graded here. For some assays here: Where a sequence is shown, tags or fusion partners need not be part of it.

By UniProt entry, the sequences of proteins in these tests, tags left out.
UniProt Q9UM11: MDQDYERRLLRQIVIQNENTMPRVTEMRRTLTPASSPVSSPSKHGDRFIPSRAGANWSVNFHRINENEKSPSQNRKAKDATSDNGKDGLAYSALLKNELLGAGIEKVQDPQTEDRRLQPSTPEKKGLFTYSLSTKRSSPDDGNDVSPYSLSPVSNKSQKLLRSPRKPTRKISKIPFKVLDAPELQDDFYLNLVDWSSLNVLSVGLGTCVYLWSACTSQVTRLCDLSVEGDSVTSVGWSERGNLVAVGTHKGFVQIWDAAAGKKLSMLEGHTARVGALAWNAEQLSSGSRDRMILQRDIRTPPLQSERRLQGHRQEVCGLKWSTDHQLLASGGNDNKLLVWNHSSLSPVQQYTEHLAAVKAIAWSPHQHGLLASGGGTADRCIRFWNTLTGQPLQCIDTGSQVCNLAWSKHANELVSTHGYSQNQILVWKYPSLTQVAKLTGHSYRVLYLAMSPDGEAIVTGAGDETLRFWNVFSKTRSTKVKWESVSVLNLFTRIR
UniProt Q96GD4: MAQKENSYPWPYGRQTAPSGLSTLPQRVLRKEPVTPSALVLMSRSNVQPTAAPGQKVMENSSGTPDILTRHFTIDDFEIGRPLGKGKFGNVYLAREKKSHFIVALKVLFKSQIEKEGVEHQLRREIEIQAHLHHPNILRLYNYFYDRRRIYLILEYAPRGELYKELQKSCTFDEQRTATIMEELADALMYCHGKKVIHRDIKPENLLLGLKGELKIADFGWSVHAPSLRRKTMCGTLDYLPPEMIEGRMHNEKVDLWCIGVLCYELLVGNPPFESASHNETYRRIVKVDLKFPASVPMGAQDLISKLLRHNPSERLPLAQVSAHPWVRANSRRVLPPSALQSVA

Columns and labels:
GST-CDH1 = GST-CDH1 (UniProt Q9UM11); experiment: pull-down; purified GST fusion (100 ng of GST-USP37) mixed with 10 μl of in vitro translated protein on ice for 1 h, diluted with TBST, glutathione beads 1 h at 4 °C, four washes with TBST, immunoblot; only the target purified
[1] = target: T1, recombinant glutathione-S-transferase (GST)-USP37 (UniProt Q86T82); experiment: condition: 100 ng of GST-USP37 with 10 μl of in vitro translated protein; pull-down; purified GST fusion (100 ng of GST-USP37) mixed with 10 μl of in vitro translated protein on ice for 1 h, diluted with TBST, glutathione beads 1 h at 4 °C, four washes with TBST, immunoblot; only the target …
T1 sequence: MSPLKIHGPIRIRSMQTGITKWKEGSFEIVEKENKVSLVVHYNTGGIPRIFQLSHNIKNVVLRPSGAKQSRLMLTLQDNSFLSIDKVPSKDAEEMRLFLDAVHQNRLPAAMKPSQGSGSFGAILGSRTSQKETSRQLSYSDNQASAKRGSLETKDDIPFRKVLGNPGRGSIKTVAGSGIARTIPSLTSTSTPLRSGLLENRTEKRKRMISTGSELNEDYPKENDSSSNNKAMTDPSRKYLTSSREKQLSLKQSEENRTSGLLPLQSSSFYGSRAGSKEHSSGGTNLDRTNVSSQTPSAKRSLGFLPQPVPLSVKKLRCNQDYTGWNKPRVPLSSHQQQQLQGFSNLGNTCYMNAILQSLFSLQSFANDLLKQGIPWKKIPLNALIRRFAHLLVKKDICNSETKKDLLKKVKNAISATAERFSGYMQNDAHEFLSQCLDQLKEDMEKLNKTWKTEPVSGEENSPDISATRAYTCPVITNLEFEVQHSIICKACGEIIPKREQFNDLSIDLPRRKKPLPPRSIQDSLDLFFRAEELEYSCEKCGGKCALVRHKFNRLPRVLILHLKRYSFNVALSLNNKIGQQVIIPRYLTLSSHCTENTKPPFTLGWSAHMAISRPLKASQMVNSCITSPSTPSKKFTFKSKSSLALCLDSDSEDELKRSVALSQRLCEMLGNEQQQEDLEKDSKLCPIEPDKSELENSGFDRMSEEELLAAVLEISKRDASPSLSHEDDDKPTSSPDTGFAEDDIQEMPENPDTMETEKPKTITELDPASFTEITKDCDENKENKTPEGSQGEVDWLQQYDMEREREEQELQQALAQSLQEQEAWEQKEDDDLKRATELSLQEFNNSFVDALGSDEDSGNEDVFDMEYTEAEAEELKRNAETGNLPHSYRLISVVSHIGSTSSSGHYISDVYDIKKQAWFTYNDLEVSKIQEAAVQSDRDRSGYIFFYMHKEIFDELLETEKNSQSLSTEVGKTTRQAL

Substance: in vitro translated MYC-AURKB (from UniProt Q96GD4 1-344) (enzyme)
- binding (GST-CDH1): binds
- binding [1]: no binding
